Assay: Absorbance and fluorescence emission after reaction with homocysteine in aqueous solution (pH 7.4, PBS buffer)
Conditions: Compound 1 10 μM + DL-homocysteine 10 μM
Text: In this connection, the cell that puts the compound into each device was a standard quartz cell with a thickness of 1 cm (internal volume=[…]).

## O=[N+]([O-])c1ccc(Oc2ccncc2)c2nonc12 [Compound 1, 4-nitro-7-(pyridine-4-yloxy)benzo[c] [1,2,5] oxadiazole]
Excitation 460 nm
  wavelength at which the fluorescence emission spectrum increased (fluorescence turn-on): 550 nm
Stirred 10 minutes
  wavelength at which the absorbance spectrum increased: 488 nm

— US20250224399A1, “METHOD FOR DETECTING HOMOCYSTEINE IN PLASMA AND METHOD FOR DIAGNOSING GLIOBLASTOMA BY USING NOVEL FLUORESCENT PROBE” (UNIVERSITY-INDUSTRY COOPERATION GROUP OF KYUNG HEE …, priority 2022, published 2025)
